Assay results from paper PMC12304134.
Results are given in words; binding and its absence hold for the method and conditions named. Binding seen in cells or lysates may run through a third protein. Some results given as binding are weak or reduced against the parent protein; the word gives no strength.

Protein sequences, listed by entry. Tags and fused reporters are not part of them. Residues count along the entry.
UniProt P07954, residues 45-510: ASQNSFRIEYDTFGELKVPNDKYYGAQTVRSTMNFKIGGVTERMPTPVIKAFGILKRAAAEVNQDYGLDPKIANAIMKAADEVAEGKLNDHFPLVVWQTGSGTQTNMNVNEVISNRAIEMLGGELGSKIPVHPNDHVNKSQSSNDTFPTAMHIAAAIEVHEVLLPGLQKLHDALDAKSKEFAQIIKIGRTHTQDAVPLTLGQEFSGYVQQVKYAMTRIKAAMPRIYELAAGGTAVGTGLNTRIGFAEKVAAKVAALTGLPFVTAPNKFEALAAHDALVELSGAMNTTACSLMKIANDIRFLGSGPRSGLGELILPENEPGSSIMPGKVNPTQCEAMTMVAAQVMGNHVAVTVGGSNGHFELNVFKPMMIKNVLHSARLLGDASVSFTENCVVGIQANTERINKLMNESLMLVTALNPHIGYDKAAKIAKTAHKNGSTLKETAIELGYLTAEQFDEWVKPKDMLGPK
UniProt Q9UBN7: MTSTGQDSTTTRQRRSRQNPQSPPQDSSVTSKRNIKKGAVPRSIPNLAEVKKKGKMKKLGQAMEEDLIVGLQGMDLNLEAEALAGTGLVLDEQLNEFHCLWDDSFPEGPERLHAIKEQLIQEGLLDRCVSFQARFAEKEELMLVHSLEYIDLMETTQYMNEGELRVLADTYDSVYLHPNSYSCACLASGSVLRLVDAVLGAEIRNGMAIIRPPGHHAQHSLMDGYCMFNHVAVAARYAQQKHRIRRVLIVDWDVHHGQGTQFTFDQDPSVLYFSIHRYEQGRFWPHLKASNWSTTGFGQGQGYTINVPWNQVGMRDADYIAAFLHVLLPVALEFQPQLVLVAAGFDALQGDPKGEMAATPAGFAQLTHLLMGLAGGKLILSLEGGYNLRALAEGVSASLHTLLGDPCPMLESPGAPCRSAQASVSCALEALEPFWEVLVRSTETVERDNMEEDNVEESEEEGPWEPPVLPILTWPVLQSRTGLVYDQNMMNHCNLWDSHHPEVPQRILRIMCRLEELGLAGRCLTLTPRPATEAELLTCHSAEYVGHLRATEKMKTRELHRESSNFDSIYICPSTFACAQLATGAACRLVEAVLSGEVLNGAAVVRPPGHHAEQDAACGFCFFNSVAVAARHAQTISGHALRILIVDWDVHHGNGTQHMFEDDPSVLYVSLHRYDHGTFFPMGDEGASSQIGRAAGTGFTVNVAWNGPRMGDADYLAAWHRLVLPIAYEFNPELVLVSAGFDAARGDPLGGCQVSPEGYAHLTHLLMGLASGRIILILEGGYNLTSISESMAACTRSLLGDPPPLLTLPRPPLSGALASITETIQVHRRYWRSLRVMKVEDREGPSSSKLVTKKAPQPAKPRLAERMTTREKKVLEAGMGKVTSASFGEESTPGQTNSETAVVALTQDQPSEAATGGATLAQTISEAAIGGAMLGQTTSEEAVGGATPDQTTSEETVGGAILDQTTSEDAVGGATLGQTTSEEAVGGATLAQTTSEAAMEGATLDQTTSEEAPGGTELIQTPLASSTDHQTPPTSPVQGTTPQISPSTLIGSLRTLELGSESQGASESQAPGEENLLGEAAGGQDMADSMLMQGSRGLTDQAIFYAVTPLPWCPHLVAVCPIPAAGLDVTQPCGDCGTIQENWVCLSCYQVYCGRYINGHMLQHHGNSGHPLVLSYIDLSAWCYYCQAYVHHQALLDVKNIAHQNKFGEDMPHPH

What was measured:
[1] = biological target: fumarate hydratase (FH) (human (endogenous in MDA-MB-231 and BT-549)) (UniProt P07954); test: co-IP; immunoprecipitation of FH from mitochondrial fractions
[2] = biological target: fumarate hydratase (FH) (human (endogenous in MDA-MB-231 and BT-549)) (UniProt P07954); test: co-IP; immunoprecipitation of FH from nuclear extracts (NE-PER kit)
[3] = biological target: fumarate hydratase (FH) (human (endogenous in MDA-MB-231 and BT-549)) (UniProt P07954); test: co-IP; immunoprecipitation of FH from cytosolic fractions, with or without BAS-2 treatment
[4] = biological target: fumarate hydratase (FH) (human (endogenous in MDA-MB-231 and BT-549)) (UniProt P07954); test: co-IP; whole-cell lysates (MDA-MB-231, BT-549) in CHAPS buffer (0.5% CHAPS, 150 mM NaCl, 2 mM EDTA, 15 mM Tris-HCl pH 8, 50 mM DTT); 600 µg protein, FH antibody or IgG mouse control (5 µg) overnight at 4 °C, protein A agarose; Western blot

binding [1]: binds
binding [2]: binds
binding [3]: binds weakly
binding [4]: binds
Substance: histone deacetylase 6 (HDAC6) (from UniProt Q9UBN7 1-1215)
